Experimental data taken from PubChem BioAssay AID504467 (National Center for Advancing Translational Sciences (NCATS), 2011).
In all, about 330,000 compounds went through this assay and about 7,700 (2.3%) were called active. Inconclusive results, whose numbers are uncertain, are shown with a selection of clear calls. The call rests on the fitted dose curve; in most records, active means well fitted inhibition curve with a large enough effect; inconclusive means small, poorly fitted or top-dose-only effect, or effect the other way; inactive means flat fitted curve, though single readings scatter. Potencies beside an inconclusive call are fits to weak or partial responses and may not hold up.

experiment: qHTS screen for small molecules that inhibit ELG1-dependent DNA repair in human embryonic kidney (HEK293T) cells expressing luciferase-tagged ELG1; settings: HEK293T ELG1-luciferase reporter, luminescence, 16 h, DNA damage induced by 5-fluorouridine; series mostly up to 46.1 µM; further: nearly all actives have a fitted effect of over 55% in size
How it was run: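 Luminescence from the luciferase reporter, measured 30 min after ONE-Glo reagent at room temperature, was the read-out. Beforehand, 2,000 cells per well were exposed for 16 hr at 37 °C to 5-fluorouridine together with compound or vehicle.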
Potency means the concentration at half of the fitted maximal effect.

Question: Which Potency does the source give for `CCOc1ccc(N2Cc3ccccc3C2)cc1` here?
Answer: inconclusive: 7.31 µM [activator, partial curve]

Question: With `CC1CCN(C(=O)COC(=O)c2ccc3c(c2)OCO3)CC1` as the molecule, how does the Potency read?
Answer: inconclusive: 20.6 µM [activator, partial curve, poor fit]

Question: Which Potency does the source give for `CCOC(=O)C1=C(N)Oc2ccc3ccccc3c2C1c1ccc(O)cc1` (centres undefined) here?
Answer: inactive

Question: Which Potency does the source give for `NC(=O)C1CCN(C(=O)c2ccc3c(=O)n(Cc4ccco4)c(SCc4ccc([N+](=O)[O-])cc4)nc3c2)CC1` here?
Answer: inconclusive: 29.1 µM [inhibitor, single point]

Question: With `C#CCOCCOCCOCCNc1nc(N2CCN(C(=O)CCCCCCCCCCNC(=O)Cn3cc(CCCCCN)nn3)CC2)nc(N2CCN(C(=O)CCCCCCCCCCNC(=O)[C@@H](CCSC)n3cc(CCO)nn3)CC2)n1` as the molecule, how does the Potency read?
Answer: inconclusive: 8.91 µM [inhibitor, single point]

Question: For `Cc1ccnc(-n2sc3ccccc3c2=O)n1`, which Potency is on record?
Answer: inconclusive: 18.4 µM [activator, single point]

Question: With `Cc1ccc(Cl)cc1NC(=S)N(Cc1ccco1)C(C)c1cccs1` (centres undefined) as the molecule, how does the Potency read?
Answer: inconclusive: 29.1 µM [inhibitor, single point]

Question: For `CCOCCN(C(=O)COC)c1cccc(OC)c1`, which Potency is on record?
Answer: inactive

Question: With `Cc1ccc(OCCCCNC2CCCC(C)C2C)c(C)c1` (centres undefined) as the molecule, how does the Potency read?
Answer: inconclusive: 18.3 µM [inhibitor, partial curve, poor fit]

Question: With `CCCc1nn(C)c(C(=O)Nc2ccc(C)c(C)c2)c1Cl` as the molecule, how does the Potency read?
Answer: inconclusive: 11.6 µM [activator, partial curve]

Question: With `O=S(=O)(c1cccs1)n1cnc2ccccc21` as the molecule, how does the Potency read?
Answer: inconclusive: 23.1 µM [inhibitor, single point]

Question: With `CC(=O)Nc1cccc(NC(=O)C2CC(=O)N(C3CCCCC3)C2)c1` (centres undefined) as the molecule, how does the Potency read?
Answer: inconclusive: 23.1 µM [activator, partial curve, poor fit]

Question: Which Potency does the source give for `Cc1ccc(NC(=O)Cn2ncc(Cl)c(Cl)c2=O)cc1S(=O)(=O)N1CCCCC1` here?
Answer: active: 14.6 µM

Question: Which Potency does the source give for `COc1ccc(/C=C/S(=O)(=O)NCc2ccccc2)cc1OC` here?
Answer: inconclusive: 29.1 µM [inhibitor, partial curve, poor fit]

Question: Which Potency does the source give for `COc1ccc(Nc2nnc(SCc3cc([N+](=O)[O-])cc4c3OCOC4)s2)cc1` here?
Answer: inconclusive: 2.91 µM [inhibitor, partial curve, poor fit]

Question: For `CCC(C)c1ccc(NC(=O)c2cccs2)cc1` (centres undefined), which Potency is on record?
Answer: inconclusive: 1.3 µM [activator, partial curve]

Question: Which Potency does the source give for `Cc1ccc2c(c1)nnn2C1CCN(CC(=O)Nc2ccc(F)cc2)CC1` here?
Answer: inactive

Question: With `CCN(c1ccc(OC)cc1)S(=O)(=O)c1nnc(NC(=O)COc2ccccc2)s1` as the molecule, how does the Potency read?
Answer: inactive

Question: Which Potency does the source give for `CC#CCCCC(=O)Nc1cccc(C(=O)O)c1` here?
Answer: inconclusive: 15.8 µM [activator, partial curve, poor fit]

Question: With `Cc1cc(Nc2ccc(Cl)cc2)nc(NCc2ccccc2)n1` as the molecule, how does the Potency read?
Answer: inactive

Question: For `O=C(COC(=O)c1ccc(Cl)cc1O)Nc1cccnc1Cl`, which Potency is on record?
Answer: inconclusive: 20.6 µM [activator, single point]

Question: With `Cc1cnc(C(=O)OCC(=O)N(Cc2ccccc2)C(C)(C)C)cn1` as the molecule, how does the Potency read?
Answer: inactive

Question: For `Cc1ccc(NC(=O)c2ccc(CSc3nnc(C)s3)cc2)c(C)c1`, which Potency is on record?
Answer: inconclusive: 14.6 µM [activator, partial curve]

Question: With `Cc1ccc(Nc2nc(N)c([N+](=O)[O-])c(NCCO)n2)cc1C` as the molecule, how does the Potency read?
Answer: inconclusive: 7.3 µM [activator, partial curve]

Question: With `COCCn1c(C)cc(C(=O)COC(=O)c2cncc(Br)c2)c1C` as the molecule, how does the Potency read?
Answer: inconclusive: 7.31 µM [activator, partial curve]

Question: With `CCOC(=O)C1=C(CC)Nc2ccccc2N=C1NC(=O)CCN1C(=O)C2CCCCC2C1=O` (centres undefined) as the molecule, how does the Potency read?
Answer: inconclusive: 29.1 µM [inhibitor, single point]

Question: With `CCOC(=O)c1sc(NC(=S)NC(=O)c2ccccc2)nc1C` as the molecule, how does the Potency read?
Answer: inconclusive: 18.3 µM [activator, partial curve]

Question: For `COc1ccccc1C(=O)C1CCCN(C(=O)C2CCCC2)C1` (centres undefined), which Potency is on record?
Answer: inconclusive: 29.1 µM [inhibitor, single point]

Question: Which Potency does the source give for `CN=c1scc(C)n1/N=C/c1ccc2c(c1)OCO2` here?
Answer: inconclusive: 0.82 µM [activator, full curve]

Question: With `Cc1nc2ccccn2c1C(=O)NC1CCCc2ccccc21` (centres undefined) as the molecule, how does the Potency read?
Answer: inconclusive: 4.11 µM [inhibitor, partial curve]

Question: With `CN(CCNC(=O)CCCOc1cc(=O)n(C)c2ccccc12)Cc1ccccc1` as the molecule, how does the Potency read?
Answer: inconclusive: 29.1 µM [activator, single point]

Question: For `O=C(CNC(=O)c1ccc(Cl)c([N+](=O)[O-])c1)OC1CCCCC1=O` (centres undefined), which Potency is on record?
Answer: inconclusive: 25.9 µM [activator, single point]

Question: With `CN(CC(=O)Nc1cccc(F)c1)C(=O)c1ccc(N2CCCCC2)c([N+](=O)[O-])c1` as the molecule, how does the Potency read?
Answer: inactive

Question: Which Potency does the source give for `Cc1ccc2nc(NS(=O)(=O)c3cn(C)nc3C)sc2c1` here?
Answer: inconclusive: 3.26 µM [activator, full curve]

Question: For `COc1ccc(C(=O)Nc2cccc(C)c2)cc1`, which Potency is on record?
Answer: inconclusive: 2 µM [activator, full curve]

Question: With `c1ccc2c(c1)OCC(c1nnc3sc(-c4ccc5c(c4)OCO5)nn13)O2` (centres undefined) as the molecule, how does the Potency read?
Answer: inconclusive: 16.4 µM [activator, partial curve]

Question: Which Potency does the source give for `CC(C)(O)C#Cc1ccc(C(=O)N2CCCC(CCC(=O)NCc3ccccc3F)C2)cc1` (centres undefined) here?
Answer: inconclusive: 18.3 µM [inhibitor, single point]

Question: For `CC(=O)Nc1ccc(N=Cc2ccc(OCc3ccccc3)cc2)cc1`, which Potency is on record?
Answer: inconclusive: 14.6 µM [activator, partial curve]

Question: For `CCOC(=O)c1c(C)oc2c1C(=O)c1ccccc1C2=O`, which Potency is on record?
Answer: active: 7.3 µM

Question: With `COc1ccnc(NCc2cccc(C(F)(F)F)c2)c1C#N` as the molecule, how does the Potency read?
Answer: inactive

Question: With `CC1=CCC(C(=O)O)C(C(=O)Nc2ccc(-c3nc4ccc(C)cc4s3)cc2)C1` (centres undefined) as the molecule, how does the Potency read?
Answer: inconclusive: 4.61 µM [activator, partial curve]

Question: With `COC(=O)c1ccc(Oc2cc(C)nc(NCc3ccccc3)n2)cc1` as the molecule, how does the Potency read?
Answer: inconclusive: 9.2 µM [inhibitor, partial curve, poor fit]

Question: With `CC(CN1CCCC1)OC(=O)C(c1ccccc1)c1ccccc1` (centres undefined) as the molecule, how does the Potency read?
Answer: inactive

Question: Which Potency does the source give for `O=C(CC1C(=O)N(c2ccc(Cl)cc2)C(=S)N1CCc1ccncc1)Nc1ccc(F)cc1` (centres undefined) here?
Answer: inactive

Question: With `CN(CC(=O)NNC(=O)CNC(=O)c1cccs1)S(=O)(=O)c1ccc(Cl)cc1` as the molecule, how does the Potency read?
Answer: inactive

Question: For `CCN1CCN(CCNC(=O)c2ccc3c(c2)N(Cc2ccc(F)cc2)C(=O)/C(=C/c2ccccc2)S3)CC1`, which Potency is on record?
Answer: inconclusive: 29.1 µM [activator, single point]

Question: Which Potency does the source give for `O=C(c1ccc(Cl)cc1)c1cnc(Nc2ccccc2Cl)s1` here?
Answer: inconclusive: 2.91 µM [activator, full curve]

Question: Which Potency does the source give for `C/C(=N\NC(=O)OC(C)(C)C)c1ccc(-n2ccnc2)cc1` here?
Answer: inactive

Question: Which Potency does the source give for `CCCCn1nnc(NC(=O)c2ccc(-c3ccccc3[N+](=O)[O-])o2)n1` here?
Answer: inconclusive: 20.6 µM [activator, single point]

Question: For `N#C/C(=C\C1=C(N2CCOCC2)C(=C\c2ccccc2)/CC1)C(=O)Nc1ccccc1F`, which Potency is on record?
Answer: inconclusive: 23.1 µM [inhibitor, partial curve]

Question: With `CC(=O)c1cnc(-c2ccccc2Cl)s1` as the molecule, how does the Potency read?
Answer: inconclusive: 18.3 µM [activator, partial curve]

Question: For `COc1ccc(/C=N/NS(=O)(=O)c2ccc(NC(C)=O)cc2)cc1`, which Potency is on record?
Answer: inconclusive: 23.1 µM [inhibitor, single point]

Question: For `COc1ccc(/C=N\NC(=O)c2c(C)nc3ccc(Br)cn23)cc1`, which Potency is on record?
Answer: inactive

Question: For `O=C(O)c1ccc(-c2nnc(-c3ccccc3)o2)cc1`, which Potency is on record?
Answer: inconclusive: 1.46 µM [activator, partial curve]

Question: For `COCCN(Cc1nc(-c2ccc(C(F)(F)F)cc2)no1)C(C)C`, which Potency is on record?
Answer: inconclusive: 18.3 µM [activator, single point]

Question: With `COc1cccc(CNC(=O)Cn2cc([N+](=O)[O-])cn2)c1` as the molecule, how does the Potency read?
Answer: inactive

Question: For `CCOc1ccc(OCCN2CCCCC2)cc1`, which Potency is on record?
Answer: inactive

Question: Which Potency does the source give for `CCN(CC(=O)Nc1ccccc1OC)CC(=O)Nc1sccc1C#N` here?
Answer: inconclusive: 29.1 µM [inhibitor, single point]

Question: Which Potency does the source give for `CCOC(=O)N1CCN(S(=O)(=O)c2c(C)cc(C)cc2C)CC1` here?
Answer: inactive

Question: With `COc1cc(C(=O)c2nccc3cc(OC)c(OC)cc23)c([N+](=O)[O-])cc1OC` as the molecule, how does the Potency read?
Answer: inconclusive: 16.4 µM [inhibitor, partial curve]

Question: Which Potency does the source give for `O=C(Nc1ccncc1)c1cn(-c2ccccc2)nc1-c1cccs1` here?
Answer: inconclusive: 20.6 µM [inhibitor, single point]

Question: Which Potency does the source give for `Cc1cccc(C)c1OCC(=O)Nn1c(COc2ccccc2)nc2ccccc2c1=O` here?
Answer: inconclusive: 25.9 µM [inhibitor, partial curve, poor fit]

Question: Which Potency does the source give for `CCOc1ccc(NC(=O)c2ccc3[nH]c(=O)c(=O)[nH]c3c2)cc1` here?
Answer: inconclusive: 1.83 µM [activator, partial curve, poor fit]

Question: For `CCC1C/C(=C\c2cccnc2)C(=O)/C(=C/c2cccnc2)C1` (centres undefined), which Potency is on record?
Answer: active: 2.59 µM

Question: With `COc1ccc(NC(=O)NCCN2CCCCC2)cc1` as the molecule, how does the Potency read?
Answer: inactive

Question: For `CC(=O)c1cccc(NC(=O)N(c2ccccc2)c2ccccc2)c1`, which Potency is on record?
Answer: inconclusive: 0.146 µM [activator, full curve, poor fit]

Question: For `CSC1=N/C(=C\c2ccc(C)cc2)C(=O)S1`, which Potency is on record?
Answer: inactive

Question: With `COc1ccc(-c2[nH]c(-c3cc(OC)c4c(c3)OCO4)nc2-c2ccccc2)cc1` as the molecule, how does the Potency read?
Answer: active: 20.6 µM

Question: For `COc1cc2c(C(=O)NCc3ccc4c(c3)OCO4)cn(CC(C)C)c(=O)c2cc1OC`, which Potency is on record?
Answer: inconclusive: 10.3 µM [inhibitor, partial curve, poor fit]
